Library screening results

Measurements from “University of Dundee, Small-Polar-MMV Screening Library” (2021), ChEMBL document CHEMBL3988442.

Mtb growth Cornell: 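Whole-cell assay for inhibitors of Mycobacterium tuberculosis growth, labelled Cornell in the record; the read-out is not stated. The concentration is filed as 10 mM, unlikely as a test dose, so the dose is not known. Higher means stronger inhibition (inferred from two other growth screens of the library). About 53,000 compounds were tested under these conditions; 1.7% (about 900) showed 50% or more at least once.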
Mtb heat-shock: 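Assay on Mycobacterium tuberculosis, filed only as a heat shock assay from Cornell; the read-out is not stated. The concentration is filed as 10 mM, unlikely as a test dose, so the dose is not known. Direction is inferred from retests: higher values go with stronger inhibition. About 69,000 compounds were tested under these conditions; 1.4% (about 930) showed 50% or more at least once.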

Each number is a percent effect as filed. The controls that fix the scale are not given in the record; negative values are as filed. Compounds were drawn at random from those tested, without regard to their results.

{"compound": "CCCOCCN1CCc2[nH]c(-c3ccc(OC)cc3)nc2C1", "Mtb growth Cornell": 20.6, "Mtb heat-shock": 4.035}
{"compound": "CC(C)c1nnc(CN2CCCC(Cn3cncn3)C2)o1", "stereo": "stereo not given", "Mtb heat-shock": 13.28}
{"compound": "CC(c1ccc(F)cc1)n1ccnc1-c1cc2n(n1)CCCNC2", "stereo": "stereo not given", "Mtb heat-shock": -12.39}
{"compound": "CC(C)C(=O)N1CCCC1C(=O)Nc1cc(C(F)(F)F)ccc1F", "stereo": "stereo not given", "Mtb heat-shock": 19.45}
{"compound": "CC(C)c1nccn1C1CCCN(C(=O)C2=NN(C)C(=O)CC2)C1", "stereo": "stereo not given", "Mtb heat-shock": -17.85}
{"compound": "O=C(O)C(F)(F)F.[H][C@@]12CCN(Cc3ccsc3)C[C@@]1([H])[C@H](C(=O)NC)CCO2", "Mtb growth Cornell": -27.56, "Mtb heat-shock": -7.503}
{"compound": "COc1ccc(-c2nnsc2C(=O)N2CCN(C(C)=O)CC2)cc1", "Mtb growth Cornell": 0.9435, "Mtb heat-shock": -19.3}
{"compound": "COc1ccc(-n2ncc(C(=O)NCC3COC(C)(C)O3)c2N)cc1", "stereo": "stereo not given", "Mtb heat-shock": -24.23}
{"compound": "O=C(NCC1OCCc2cn(CC3CCOCC3)nc21)c1ccncc1.O=C(O)C(F)(F)F", "stereo": "stereo not given", "Mtb growth Cornell": 30.85, "Mtb heat-shock": 2.69}
{"compound": "COc1cc2c(nn1)CCN(CC(O)COc1ccc(C#N)cc1)C2", "stereo": "stereo not given", "Mtb growth Cornell": 28.29, "Mtb heat-shock": 8.66}
{"compound": "CCN(Cc1cccc(Cl)c1)Cn1nc(C)c2c(C)onc2c1=O", "Mtb growth Cornell": -22.17, "Mtb heat-shock": -5.163}
{"compound": "Cc1nc(-c2ccsc2)ccc1C(=O)NCC(C)N1CCOCC1", "stereo": "stereo not given", "Mtb heat-shock": 4.404}
{"compound": "COC(=O)c1cccn1C1CCN(C(=O)c2cc(F)ccc2C)CC1", "Mtb growth Cornell": -18.16, "Mtb heat-shock": -23.19}
{"compound": "COc1cc(S(=O)(=O)N2CCc3ccc(F)cc32)cc(C(=O)O)c1OC", "Mtb heat-shock": 2.221}
{"compound": "CC(C)CCN1CCc2[nH]nc(C(=O)N3CC=CC3)c2C1.O=C(O)C(F)(F)F.O=C(O)C(F)(F)F", "Mtb growth Cornell": -63.27, "Mtb heat-shock": 5.648}
{"compound": "COCc1ccccc1C(=O)N1CCCC(n2nc(C)cc2C)C1", "stereo": "stereo not given", "Mtb growth Cornell": 15.88, "Mtb heat-shock": -6.517}
{"compound": "CCC(O)CN1CCN(C(=O)c2cc(Cl)cc3cccnc23)CC1", "stereo": "stereo not given", "Mtb heat-shock": -4.285}
{"compound": "CCc1noc(C)c1C(=O)NCC(c1ccc(C)cc1)N(C)C", "stereo": "stereo not given", "Mtb heat-shock": 28.85}
{"compound": "CCc1nc(CN2CCCN(C(=O)C(C)COC)CC2)cs1", "stereo": "stereo not given", "Mtb growth Cornell": -27.71, "Mtb heat-shock": 7.023}
{"compound": "CC(Cc1cccc(F)c1)NCc1cnc(N2CCN(C)CC2)nc1", "stereo": "stereo not given", "Mtb growth Cornell": -26.26, "Mtb heat-shock": -33.42}
{"compound": "O=C(CCc1cccnc1)N1CCC(c2cnccn2)CC1", "Mtb growth Cornell": -13.76, "Mtb heat-shock": 5.984}
{"compound": "COc1ccc(CN2CCCCCC2c2cccs2)c(OC)c1", "stereo": "stereo not given", "Mtb growth Cornell": 26.15, "Mtb heat-shock": -0.9929}
{"compound": "Cc1cccc(-c2nc(N)nc3c2CN(C(=O)c2ccncn2)C3C)c1", "stereo": "stereo not given", "Mtb growth Cornell": 11.77, "Mtb heat-shock": -1.378}
{"compound": "COc1cccc(-c2n[nH]cc2-c2nc(CC3CCN(C)CC3)no2)c1", "Mtb growth Cornell": 24.23, "Mtb heat-shock": 0.8092}
{"compound": "CN(C)CCN1CCC(NC2CSCCc3ccccc32)CC1", "stereo": "stereo not given", "Mtb growth Cornell": 23.98, "Mtb heat-shock": -10.33}
{"compound": "Cc1ccc(CN(CCCN2CCOCC2)Cc2cncn2C)o1.O=C(O)CC(O)(CC(=O)O)C(=O)O", "Mtb growth Cornell": 5.578, "Mtb heat-shock": 7.314}
{"compound": "O=C(NCCOc1ccc2c(c1)CCC2)N1CCS(=O)(=O)CC1", "Mtb growth Cornell": -13.54, "Mtb heat-shock": 4.996}
{"compound": "CC(C)c1nnc2sc(CC3CCS(=O)(=O)C3)nn12", "stereo": "stereo not given", "Mtb heat-shock": -21.89}
{"compound": "CC(=O)N1CCC(Cc2nccnc2-c2ccnn2C)CC1", "Mtb growth Cornell": -16.21, "Mtb heat-shock": -8.588}

Once more, the final 3:

{"compound": "O=C(NCCOc1ccc2c(c1)CCC2)N1CCS(=O)(=O)CC1", "Mtb growth Cornell": -13.54, "Mtb heat-shock": 4.996}
{"compound": "CC(C)c1nnc2sc(CC3CCS(=O)(=O)C3)nn12", "stereo": "stereo not given", "Mtb heat-shock": -21.89}
{"compound": "CC(=O)N1CCC(Cc2nccnc2-c2ccnn2C)CC1", "Mtb growth Cornell": -16.21, "Mtb heat-shock": -8.588}